This is one part of the list. These are further read-outs of the screen, such as a control signal, another cell line or another target. No call is given for them. The list favours compounds with an active or inconclusive main result. The note in brackets gives the kind of curve behind each potency; many fits are weak.

The test can be described thus: qHTS Assay to Find Inhibitors of Chronic Active B-Cell Receptor Signaling. To be noted: ABC-DLBCL IkBa-CBG/CBR reporter, luminescence ratio (green luciferase fused to IkBa over red control in TMD8 lymphoma cells), 4 h. An outline of the steps: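 Doxycycline induced both beetle luciferases in TMD8 lymphoma cells; IKK-driven degradation limits the IkappaBalpha-fused green signal, while red luminescence normalises for cell number and nonspecific effects. Compounds tested up to 46 uM, 4 hrs.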
(Quantitative high-throughput screening tests each substance at several concentrations.)

Where [1] appears, read: measured here: CBR red luminescence, cell number.
The mark [2] stands for this setting: measured here: IkBa-CBG green luminescence.

For `COc1ccc(/C=N/NC(=O)c2ccc3c(c2)OCCO3)c(OC)c1`, the half-maximal activity concentration (AC50) under setting [1] was 2.82 µM [falling, full curve]. Still for that read-out and setting: as for `CCCCCCCOc1ccc(OC(=O)c2ccncc2)cc1`, the figure is 18.4 µM [rising, single point]; as for `CCN(CC)C(=O)CSc1nnc(-c2ccccn2)n1-c1ccccc1OC`, 15.8 µM [falling, single point]. With `CCc1cc2c(C)cc(C)cc2nc1SCC(=O)Nc1cc(C)on1`, under setting [1], the half-maximal activity concentration (AC50) is 31.6 µM [rising, single point]. Same read-out and setting: as for `COC(=O)Cn1c(O)c(N=NC(=O)CNC(=O)c2ccc3c(c2)OCCO3)c2ccccc21`, the figure is 3.16 µM [rising, single point]; as for `O=C(O)c1cc([N+](=O)[O-])ccc1NCc1ccccc1`, 5.62 µM [falling, partial curve, poor fit]. In the case of `COc1ccc(CCNC(=O)c2ccc(-c3cccc([N+](=O)[O-])c3)o2)cc1OC`, under setting [1], the half-maximal activity concentration (AC50) was 25.1 µM [falling, single point].

Consider `Cc1ccc2c(c1)N(CC(=O)N1CCCCC1c1cccnc1)C(=O)CO2` (centres undefined), for which the AC50 under setting [1] was 20.6 µM [rising, partial curve, poor fit]. With `O=C(N/N=C/c1cccc2ccccc12)c1cc(C2CC2)[nH]n1`, the AC50 under setting [1] was 12.6 µM [falling, single point].

Regarding `COc1ccc(C(CCNCc2ccc(N(C)C)cc2)C(C)C)cc1` (centres undefined), the AC50 under setting [1] was 17.8 µM [falling, partial curve, poor fit]. Same read-out and setting: the figure for `COCCNC(=O)c1ccccc1NC(=O)Nc1ccccc1` is 8.91 µM [falling, partial curve]; for `COc1ccc(/C=N\NC(=O)c2ccccc2)cc1COc1ccccc1` it is 7.94 µM [falling, partial curve, poor fit]; for `O=[N+]([O-])c1ccccc1Oc1ccc(Cl)c2cccnc12` it is 11.2 µM [falling, partial curve]. Same read-out and setting: as for `CC1CCN(C(=O)C2CC(c3ccc(F)cc3)=NO2)CC1` (centres undefined), the figure is 1.78 µM [rising, partial curve, poor fit]; as for `Cc1ccc(NC(=O)c2cc(NC(=O)CCC(=O)O)ccc2N2CCCCC2)cc1`, 3.16 µM [falling, partial curve].

With `C/C(=N\Nc1ccc([N+](=O)[O-])cc1)c1ccc2c(c1)OCO2`, the AC50 is 1.58 µM [rising, partial curve] under setting [1] and 11.2 µM [falling, single point] under setting [2]. Consider `Cc1cc(C(=O)N/N=C/c2cccn2C)no1`, for which the half-maximal activity concentration (AC50) under setting [1] is 18.4 µM [falling, partial curve]. Same read-out and setting: the figure for `COc1cc(/C=N/NC(=O)c2nc(-c3ccccc3)n(-c3ccccc3)n2)ccc1O` is 0.92 µM [rising, full curve].

For `CCOC(=O)C1=C(CSCc2ccccc2)NC(=O)NC1c1cc(C)ccc1C` (centres undefined), the half-maximal activity concentration (AC50) under setting [1] is 2.59 µM [falling, full curve].

Turning to `Cc1ccc(C(=O)CCC2CCCCC2=O)cc1` (centres undefined), the AC50 under setting [1] is 6.51 µM [rising, single point]. As for `Cc1cc(OC(C)C(=O)Nc2ccc(S(=O)(=O)Nc3onc(C)c3C)cc2)cc(C)c1Cl` (centres undefined), the AC50 under setting [1] is 14.1 µM [falling, single point]. Regarding `CC1Cc2nc(SCC(=O)Nc3ccc4c(c3)OCO4)n(Cc3ccccc3)c(=O)c2S1` (centres undefined), the AC50 under setting [1] was 29.1 µM [falling, single point].

As for `CCN(CC)c1ccc(/C=N/N2CCOCC2)c(O)c1`, the AC50 under setting [1] is 5.8 µM [rising, full curve]. Same read-out and setting: as for `COc1ccc(-c2coc3cc(OC)cc(OC)c3c2=O)cc1`, the figure is 11.2 µM [falling, single point]; as for `COc1ccc(Nc2ccnc3ccccc23)cc1`, 1.12 µM [falling, partial curve, poor fit]. Consider `NC(=O)c1nsc(C(=O)N(Cc2cccnc2)C(C(=O)NCc2ccc(F)cc2)c2ccc(O)cc2)c1N` (centres undefined), for which, under setting [1], the AC50 was 2.51 µM [rising, partial curve]. Same read-out and setting: as for `CCCn1c(SCC(=O)N2CCCC2=O)nc2ccccc2c1=O`, the figure is 16.4 µM [falling, single point]; as for `O=C1CC(c2ccc3c(c2)OCCO3)Oc2ccccc21` (centres undefined), 35.5 µM [falling, single point]; as for `CCCC(=O)Nc1ccc(-c2nc3cc(C)c(C)cc3o2)cc1`, 2.82 µM [rising, full curve, poor fit]. The same measure, in the same setting: as for `Cn1c(CSCc2ccccc2Cl)nnc1SCC(=O)Nc1nccs1`, the figure is 3.66 µM [falling, full curve, poor fit]; as for `CC1(CCc2ccccc2)NC(=O)N(CC(=O)Nc2ccccc2)C1=O` (centres undefined), 31.6 µM [falling, single point]. Regarding `NS(=O)(=O)c1ccc(N/N=C/c2cn(-c3ccccc3)nc2-c2cccs2)cc1`, the half-maximal activity concentration (AC50) under setting [2] was 20.6 µM [rising, partial curve, poor fit]. On to `c1ccc(-c2ccccc2OCCCCN2CCCCCC2)cc1`, for which the AC50 under setting [1] was 8.91 µM [falling, single point].

As to `COC(=O)N1C(=O)[C@](c2ccccc2)(C2CCCCC2)N1C(=O)OC`, under setting [1], the AC50 is 2.82 µM [falling, full curve]. Still for that read-out and setting: as for `COc1cccc2sc(N(CCN(C)C)C(=O)/C=C/c3cccs3)nc12`, the figure is 14.1 µM [falling, single point]. Turning to `O=c1c2ccccc2sn1-c1ccc(F)cc1`, the AC50 is, setting by setting: under setting [1], 18.4 µM [falling, partial curve]; under setting [2], 23.1 µM [falling, single point]. `C=C(C)Cn1c(N2CCCC2)nc2c1c(=O)n(C)c(=O)n2C`: under setting [1], the half-maximal activity concentration (AC50) is 2.82 µM [falling, partial curve, poor fit]. On the same count and under the same terms, as for `COc1ccc(/C=C2\SC(=O)N(CCC(=O)N(C)C3CCS(=O)(=O)C3)C2=O)cc1` (centres undefined), the figure is 22.4 µM [falling, single point]. As to `O=C(c1cccnc1)N1CCN(S(=O)(=O)c2ccc3ccccc3c2)CC1`, the concentration at half-maximal activity (AC50) reads like this: under setting [1], 0.517 µM [falling, full curve, poor fit]; under setting [2], 0.651 µM [rising, partial curve, poor fit]. `CCOC(=O)C1CCN(Cc2ccc(F)c(F)c2)CC1`: the AC50 under setting [1] is 0.411 µM [rising, partial curve, poor fit]. For the molecule `Cc1cc(NC(=O)C(C)C)ncc1NC(=O)c1cccc(F)c1`, the concentration at half-maximal activity (AC50) under setting [1] was 6.31 µM [falling, single point].

Broadly, the AC50 is the concentration giving half of the maximal activity seen.

These data come from PubChem BioAssay AID493014 (National Center for Advancing Translational Sciences (NCATS), 2011).
